8 substances from patent publication US9453044 (dated 2016) can be followed below.

This data set can be described thus: general procedure: peptide synthesis; MBHA resin with 2-hydroxycinnamamide linker; PyBOP. The note with it: for cyclisation yield: cyclisation step, head-to-tail ring, sequence written open.

Where “and” joins values, the source holds several entries; their conditions need not be identical. Identical values can stand only once. End groups of sequences in plain letters are not given here.

Substance TGLFGFAG gave a cyclisation yield of 63%.

For the substance SGLFGFAG, the cyclisation yield worked out at 65%.

Ac-LGFAG-FAGVGLFA-NH2: the step yield worked out at 67% (coupling step) and 38% (late stage modification step).

Substance SGLYGFAG returned a cyclisation yield of 52%.

In the case of Ac-LGFAG-GAGVGLFA-NH2, the step yield is, setting by setting: (coupling step) 66%; (late stage modification step) 37%.

Ac-LGFAG-LAGVSAG-NH2: the step yield (coupling step, run 1) was 52%; the step yield (coupling step, run 2) is 55% and 60%; the step yield (late stage modification step) is 38%.

Take Ac-LGFAG-GAGVSAG-NH2: the step yield reads like this: (coupling step) 72%; (late stage modification step) 43%.

In turn, Fmoc-A-GAGVGLFA-NH2 displayed a step yield (coupling step) of 60% and a step yield (late stage modification step) of 44%.
